# Results as given in PubChem BioAssay AID2685 (National Center for Advancing Translational Sciences (NCATS), 2010).
# This is one part of the list. The main result of the screen is listed elsewhere. These columns were measured beside it and carry no call. Most of these compounds were active or inconclusive in the main read-out, so they are no random draw. Potencies come from curve fits of mixed quality, noted in brackets.
# Assay: qHTS Assay for Lipid Storage Modulators in Drosophila S3 Cells;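 on cell number change: cells counted by Cell Tracker Red CMTPX staining in the red channel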
# Conditions: BODIPY lipid droplet fluorescence, 18-24 h; for cell number change: measured here: cell count max response, cells fed with added oleic acid
# Outline: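 Laser-scanning cytometry quantifies lipid droplet accumulation (500–530 nm total intensity; droplet/cell object ratio) in oleic acid-fed (400 uM added) Drosophila S3 cells treated with a concentration series. 20 uM Triacsin C defined 100% inhibition.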
# [1] = measured here: cell number channel AC50, cells fed with added oleic acid
# [2] = measured here: lipid fluorescence (Fed channel) AC50, cells fed with added oleic acid
Compound,cell number change [%],AC50 [1],AC50 [2]
Cc1nn(-c2ccccc2)c(N2CCCC2)c1/C=N/NC(=O)c1cccc(S(=O)(=O)Nc2ccc(Cl)cc2)c1,-22,"0.651 µM [rising, single point]","0.731 µM [rising, single point]"
CC(C)Cc1cc(CNC(=O)C2CCC(=O)N(Cc3cccc(C(F)(F)F)c3)C2)on1 (stereo unspecified),24.1,–,"29.1 µM [falling, single point]"
CC(C)(C)C(=O)Nc1cc2nn(-c3ccccc3)nc2cc1Cl,163,"29.1 µM [rising, single point]","29.1 µM [rising, single point]"
NC(=O)CSc1nnc(-c2cccc(S(=O)(=O)N3CCOCC3)c2)n1C1CCCCCC1,7.97,–,"0.00651 µM [falling, full curve, poor fit]"
CC1=CC(C)(C)N(S(=O)(=O)c2ccc(C)cc2)c2cc(C)ccc21,-55.7,"20.6 µM [falling, single point]","18.4 µM [falling, single point]"
CN1OC(CC(=O)O)N(c2ccc(Cl)cc2)C1=O (stereo unspecified),-53.6,"3.66 µM [falling, full curve]","6.51 µM [falling, single point]"
Oc1ccc(/C=N/NC(=S)NCC2CCCO2)cc1 (stereo unspecified),-17.3,–,"11.6 µM [falling, partial curve]"
CCOC(=O)CNS(=O)(=O)c1cc(-c2n[nH]c(=O)c3ccccc23)ccc1C,9.33,–,–
CCOC(=O)c1cnc2ccc(C(=O)OC)cc2c1NCCc1ccc(OC)c(OC)c1,-0.114,–,"0.116 µM [rising, full curve, poor fit]"
CC(=O)N(c1ccc2oc(=O)sc2c1)S(=O)(=O)c1ccc(C(=O)O)cc1,6.25,–,"1.16 µM [falling, single point]"
O=S(=O)(NC(=NCc1ccccc1)c1ccc(F)cc1)c1ccc(Cl)cc1,132,"23.1 µM [rising, partial curve]","0.58 µM [rising, single point]"
COc1ccc(NC(=O)COC(=O)CN2C(=O)NC(C)(C)C2=O)cc1,-13.1,–,"1.64 µM [rising, single point]"
Cc1ccc(S(=O)(=O)Nc2ccnc3ccccc23)cc1,–,"1.84 µM [rising, single point]","2.31 µM [rising, single point]"
CS(=O)(=O)NCc1ccc(C(=O)NCc2ccccc2)cc1,-2.38,–,–
O=[N+]([O-])c1ccccc1Nc1nc(-c2cccnc2)cs1,-18.5,–,–
COc1ccc(-c2nc(C#N)c(NCc3ccc(C)cc3)o2)cc1OC,-29.5,–,"0.116 µM [rising, full curve, poor fit]"
CCOc1ccc(-c2nnc(N)o2)cc1,-1.43,–,"6.51 µM [rising, single point]"
COc1ccc(Cl)cc1NC(=O)Cc1c(F)cccc1Cl,–,–,"1.46 µM [rising, partial curve]"
CCOc1ccccc1NC(=O)CN1c2cccc3cccc(c23)S1(=O)=O,-10,–,–
CCCCN(C)C(=O)c1cc2c(Cl)nc3ccccc3c2s1,47.7,"18.4 µM [rising, single point]",–

Compound,cell number change [%],AC50 [1],AC50 [2]
Cc1cc(C)c(S(=O)(=O)Nc2ccc(O)c(Sc3ncn[nH]3)c2)cc1C,-17.6,–,"29.1 µM [falling, single point]"
O=C1CNC(=O)N1CC(=O)N1CCCc2ccccc21,–,–,"29.1 µM [falling, single point]"
CC(=O)Oc1ccc(C2(C)CC(C)(C)NC(=S)N2C)c(OC(C)=O)c1 (stereo unspecified),-6.13,"0.366 µM [falling, partial curve, poor fit]",–
COc1ccc(NC(=O)c2nc3nc(C)cc(C(F)F)n3n2)cc1OC,17.1,–,"0.116 µM [falling, full curve, poor fit]"
COc1ccc2cc(-c3[nH]ncc3CN3C[C@@H]4CCC[C@H]3C4)ccc2c1,-2.27,–,–
O=C(Nc1ccc(-c2nc3ccccc3o2)cc1)c1ccc2c(c1)OCO2,7.77,"0.0651 µM [rising, full curve, poor fit]","0.116 µM [rising, full curve, poor fit]"
COc1ccc(OCCCC(=O)Nc2cccnc2)cc1,36,"18.4 µM [rising, single point]",–
CCOc1ccc(/C=N/n2c(COc3ccccc3)n[nH]c2=S)cc1OC,47.2,"32.6 µM [rising, single point]",–
CS(=O)(=O)N(CC(=O)Nc1ccccc1C(=O)NCCc1ccccc1)c1ccc2c(c1)OCCO2,21.1,–,"0.651 µM [falling, single point]"
CC1=CC(C)(C)N(C(=O)CCl)c2cc(C)ccc21,-24.6,"0.0058 µM [falling, full curve, poor fit]","0.82 µM [falling, full curve]"
Cc1ccc2c(c1)-c1c(ssc1=S)C(C)(C)N2C(=O)CN1C(=O)c2ccccc2C1=O,19.7,–,"16.4 µM [rising, partial curve]"
COC(=O)CC/C(O)=C1\C(=O)CC(C)(C)CC1=NCc1nc2ccccc2[nH]1,29.8,–,"32.6 µM [rising, single point]"
CC1=CC(C)(C)N=C(NC#N)N1,-8.28,–,"18.4 µM [falling, partial curve, poor fit]"
Cc1cccc2cc(CN(Cc3ccco3)C(=O)c3ccco3)c(=O)[nH]c12,-21.9,"4.11 µM [rising, single point]",–
Cc1cc(C)c(C#N)c(SCCS(=O)(=O)c2ccc(C(C)(C)C)cc2)n1,17.5,–,–
CCn1cc(Cl)c(C(=O)NNC(=O)CCn2cc([N+](=O)[O-])cn2)n1,-4.59,–,"0.0058 µM [falling, full curve, poor fit]"
Cc1cc2oc(=O)cc(-c3cc4ccccc4o3)c2cc1O,0.989,–,–
N#CCCn1cnc2ccccc21,-107,–,–
COc1ccc(Cn2nnnc2C(c2ccccc2Cl)N2CCN(C)CC2)cc1 (stereo unspecified),-6.9,–,"29.1 µM [falling, single point]"
CCNC(=S)N=Nc1c(O)[nH]c2ccc([N+](=O)[O-])cc12,14.1,"1.84 µM [rising, single point]",–

# Exported tab-delimited: two of the compounds above
Compound	cell number change [%]	AC50 [1]	AC50 [2]
CCOc1ccc(/C=N/n2c(COc3ccccc3)n[nH]c2=S)cc1OC	47.2	32.6 µM [rising, single point]	–
CS(=O)(=O)N(CC(=O)Nc1ccccc1C(=O)NCCc1ccccc1)c1ccc2c(c1)OCCO2	21.1	–	0.651 µM [falling, single point]

# (more compounds)

Compound,cell number change [%],AC50 [1],AC50 [2]
O=C(CNS(=O)(=O)c1ccc(Br)cc1)NCc1cccnc1,27,–,"29.1 µM [rising, single point]"
CCCCC(=O)Nc1ccc(NC(=O)c2ccc([N+](=O)[O-])cc2Cl)cc1OC,-16.7,"4.61 µM [rising, partial curve, poor fit]","9.2 µM [rising, partial curve]"
Cc1c(N2C(=O)C(=O)/C(=C(/O)c3ccc(Cl)cc3)C2c2ccccc2)c(=O)n(-c2ccccc2)n1C (stereo unspecified),-7.89,–,"0.092 µM [falling, full curve, poor fit]"
CCc1nc(SCc2ccc(OCC(C)C)cc2)n[nH]1,-53.8,"16.4 µM [falling, partial curve]","3.66 µM [falling, full curve]"
c1ccc(Cc2nc3ccccc3[nH]2)cc1,3.58,–,–
O=C(CCCn1cncn1)N1CCCC(Nc2ccc(F)cc2)C1 (stereo unspecified),8.96,–,"0.00461 µM [falling, full curve, poor fit]"
Nn1c(SCC(=O)NCCc2ccc(F)cc2)nnc1C1CCCCC1,-6.33,–,"0.013 µM [rising, full curve, poor fit]"
CC(C)(C)OC(=O)N1CCC(C(=O)NCC2CCCO2)CC1 (stereo unspecified),8.99,–,"3.26 µM [rising, full curve, poor fit]"
Cc1nn(-c2ccccc2)c(C)c1-c1nnc(-c2c(C)nn(-c3ccccc3)c2C)o1,-41.3,"4.11 µM [falling, partial curve, poor fit]","3.66 µM [falling, partial curve]"
CCCn1c(N/N=C(C)\C=C\c2ccccc2)nc2c1c(=O)[nH]c(=O)n2C,-24.7,"0.184 µM [rising, full curve]","0.184 µM [rising, full curve, poor fit]"
CC(C)(C)NC(=S)NNC(=O)c1ccc2ncccc2c1,-15.1,"0.82 µM [falling, single point]",–
CCc1noc(C)c1C(=O)Nc1cc(S(=O)(=O)N2CCCCC2)ccc1N(C)C,17.7,–,"18.4 µM [rising, single point]"
O=C(Nc1ccc(-c2nnc3n2CCCCC3)cc1)c1cc2ccccc2o1,–,"0.82 µM [rising, partial curve]","0.326 µM [rising, full curve]"
O=C(/C=C/c1ccc(Cl)cc1Cl)N1CCN(c2ccc([N+](=O)[O-])c(N3CCOCC3)c2)CC1,6.25,–,"0.116 µM [rising, full curve, poor fit]"
CCN(CC)S(=O)(=O)c1ccc(C)c(NC(=O)Cn2c(=O)cnc3ccccc32)c1,-2.11,–,"6.51 µM [rising, single point]"
COc1ccc(Cl)cc1N/C(N)=N/c1nc(C)cc(=O)[nH]1,62.9,"18.4 µM [rising, single point]",–
CCOc1ccccc1NC(=O)CS(=O)(=O)c1cn(CC(=O)N2CCOCC2)c2ccccc12,-19.3,–,"29.1 µM [falling, single point]"
CCn1c(Cc2ccccc2)nnc1SCC(=O)Nc1nnc(-c2ccccc2)s1,-2.55,–,"6.51 µM [rising, full curve, poor fit]"
